PubChem BioAssay AID1259254 – NCATS, 2017

Aim: 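Genome-wide screen for genes that prevent DNA re-replication in cancer cells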 (primary screen)
Cell system: human HCT116 colorectal cancer cells
Knock-down reagent: single siRNA against human genes
Time to read-out: 3 days
Read-out: 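Imaged Hoechst DNA stain sorts each cell into a cycle phase by DNA amount; per plate, G2 fraction set to 0% for non-targeting and 100% for GMNN siRNA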
Scale: G2 robust z-score and G2 cells, % of GMNN control: higher = more G2 cells, more excess DNA replication
Hit rule: 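Active siRNAs have a G2 robust z of 5 or more median absolute deviations over the median, which in these data means about 38% or higher of GMNN control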
In all, the deposit lists about 59,000 reagents; below is an unselected part. Of all reagents, about 1,550 (2.6%) are marked active. 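G2 share is only a proxy for re-replication; each gene was hit by three separate siRNAs, and active genes were retested.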 A number with no mark means an inactive call. Reagents against one gene are numbered here. Further read-outs or replicates are left out here. Not given: the amount of reagent.

NRP2 (neuropilin 2) #1 showed G2 robust z-score 1.98; G2 cells, % of GMNN control 16.9. After knock-down of NRP2 (neuropilin 2) #2, the record shows G2 robust z-score 1.25; G2 cells, % of GMNN control 11.8. NRP2 (neuropilin 2) #3 showed G2 robust z-score -0.513; G2 cells, % of GMNN control -0.641. Against GRIA3 (glutamate ionotropic receptor AMPA type subunit 3) #1, the entry reads G2 robust z-score -1.31; G2 cells, % of GMNN control -6.28. GRIA3 (glutamate ionotropic receptor AMPA type subunit 3) #2 gave G2 robust z-score 2.31; G2 cells, % of GMNN control 19.2. With knock-down of GRIA3 (glutamate ionotropic receptor AMPA type subunit 3) #3 the results were G2 robust z-score 0.011; G2 cells, % of GMNN control 3.04.

In a second layout: entries from further up.
| gene knocked down | reagent | G2 robust z-score | G2 cells, % of GMNN control |
| --- | --- | --- | --- |
| NRP2 (neuropilin 2) | 2 | 1.25 | 11.8 |
| NRP2 (neuropilin 2) | 3 | -0.513 | -0.641 |

Further reagents follow.
METTL15P3 (methyltransferase like 15 pseudogene 3) #1 scored G2 robust z-score -0.767; G2 cells, % of GMNN control -2.43. With knock-down of METTL15P3 (methyltransferase like 15 pseudogene 3) #2, the record shows G2 robust z-score -0.771; G2 cells, % of GMNN control -2.46. METTL15P3 (methyltransferase like 15 pseudogene 3) #3 scored G2 robust z-score -0.568; G2 cells, % of GMNN control -1.03. After knock-down of LINGO3 (leucine rich repeat and Ig domain containing 3) #1, the record shows G2 robust z-score -0.418; G2 cells, % of GMNN control 0.0262. Against LINGO3 (leucine rich repeat and Ig domain containing 3) #2, the entry reads G2 robust z-score 0.0649; G2 cells, % of GMNN control 3.42. LINGO3 (leucine rich repeat and Ig domain containing 3) #3 gave G2 robust z-score 0.647; G2 cells, % of GMNN control 7.52.
